Source: PubChem BioAssay AID1224830 (NIAID, 2016)
Assay: 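Regulators of TLR4 signalling towards TNF-alpha in macrophage-like cells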 (primary screen). System: human THP-1 monocytic leukaemia cells, TNF dual-luciferase reporter clone, PMA-differentiated to macrophage-like cells. Reagents: siRNA pool against human genes, 50 nM. Duration: LPS for 4 h, given about 3 days after siRNA transfection. Conditions: bacterial LPS (TLR4 ligand), 10 ng/ml. Detection: 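Ratio of firefly to renilla light, scaled to the plate median and expressed as a robust z-score per replicate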. Reading the numbers: TNF reporter robust z-score: higher = stronger TNF reporter response to LPS. Active means: 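a well is active when its z-score exceeds 2.8 or falls below -1.5; control wells carry no call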.
In all, the deposit lists about 18,000 reagents; below is an unselected part. About 2,900 of them (16%) count as active. 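Calls are made per well; low scores hint the gene aids the LPS response, high scores that it dampens it.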 Repeated entries: four replicate wells of each siRNA pool. Reagent sequences are not shown.

TNF reporter robust z-score	activity call	gene
0.01	inactive	CCDC167
-0.23	inactive	CCDC167
-0.2	inactive	CCDC167
-0.77	inactive	CCDC167
-0.56	inactive	TNXB
-0.02	inactive	TNXB
-0.18	inactive	TNXB
-0.54	inactive	TNXB
-0.29	inactive	SELENOH
0.59	inactive	SELENOH
0.13	inactive	SELENOH
0.03	inactive	SELENOH
-0.8	inactive	DGKK
-1.19	inactive	DGKK
-0.14	inactive	DGKK
-0.58	inactive	DGKK
1.11	inactive	NPM3
1.33	inactive	NPM3
0.89	inactive	NPM3
-0.16	inactive	NPM3
-0.34	inactive	LPAR3
-0.81	inactive	LPAR3
-0.45	inactive	LPAR3
-0.62	inactive	LPAR3
-0.14	inactive	NELL1
0.24	inactive	NELL1
-0.65	inactive	NELL1
0.25	inactive	NELL1
0.89	inactive	MRGPRX2
2.16	inactive	MRGPRX2
0.81	inactive	MRGPRX2
1.87	inactive	MRGPRX2
0.05	inactive	GPR6
1.23	inactive	GPR6
1.17	inactive	GPR6
0.76	inactive	GPR6
-1	inactive	ZNF530
0.24	inactive	ZNF530
-0.33	inactive	ZNF530
-0.23	inactive	ZNF530
-0.61	inactive	PVALB
0.05	inactive	PVALB
-0.26	inactive	PVALB
0.02	inactive	PVALB
0.2	inactive	EFR3A
-0.47	inactive	EFR3A
-0.81	inactive	EFR3A
-0.57	inactive	EFR3A
-0.19	inactive	OR10J5
0.38	inactive	OR10J5
-0.41	inactive	OR10J5
0.85	inactive	OR10J5
-0.51	inactive	NPR1
0.79	inactive	NPR1
0.2	inactive	NPR1
1.55	inactive	NPR1
-0.86	inactive	MYBPHL
-1.01	inactive	MYBPHL
-1.22	inactive	MYBPHL
-1.43	inactive	MYBPHL
-0.54	inactive	TOR1A
2.06	inactive	TOR1A
0.27	inactive	TOR1A
-0.15	inactive	TOR1A
-0.16	inactive	FANCF
0.44	inactive	FANCF
0.22	inactive	FANCF
1.12	inactive	FANCF
0.14	inactive	SNAPC2
1.94	inactive	SNAPC2
0.51	inactive	SNAPC2
0.32	inactive	SNAPC2
-0.04	inactive	BCAS4
-0.18	inactive	BCAS4
0.1	inactive	BCAS4
0.6	inactive	BCAS4
-0.46	inactive	HDAC10
-0.04	inactive	HDAC10
-0.4	inactive	HDAC10
0.53	inactive	HDAC10
0.07	inactive	KRT18
0.23	inactive	KRT18
0.64	inactive	KRT18
-1.14	inactive	KRT18
1.14	inactive	GDAP1L1
1.51	inactive	GDAP1L1
1.48	inactive	GDAP1L1
1.79	inactive	GDAP1L1
-0.36	inactive	SYTL2
-0.63	inactive	SYTL2
-1.04	inactive	SYTL2
-0.86	inactive	SYTL2
-0.28	inactive	GSTM3
0.47	inactive	GSTM3
0.93	inactive	GSTM3
-0.17	inactive	GSTM3
-0.8	inactive	SULT1E1
-0.24	inactive	SULT1E1
-0.15	inactive	SULT1E1
1.14	inactive	SULT1E1
1.03	inactive	TRIO
0.28	inactive	TRIO
0.39	inactive	TRIO
0.89	inactive	TRIO
-0.83	inactive	TMEM134
0.16	inactive	TMEM134
1	inactive	TMEM134
1.33	inactive	TMEM134
1.04	inactive	METAP2
1.26	inactive	METAP2
2.03	inactive	METAP2
0.56	inactive	METAP2

Targets listed so far whose gene name starts with Z or z:
TNF reporter robust z-score	activity call	gene
-1	inactive	ZNF530
0.24	inactive	ZNF530
-0.33	inactive	ZNF530
-0.23	inactive	ZNF530
